Assay [1] addresses GST-tagged Hs POP2 (human) (UniProt Q9UFF9). As to the kind of experiment: pull-down; cleared E. coli lysates mixed at about 1:1; GST-tagged protein held on glutathione agarose; 10 mM HEPES pH 7.6, 150 mM NaCl, 0.2% Triton X-100, 1 mM DTT, 4°C; SDS-PAGE, coomassie.
Assay [2] deals with GFP-tagged human NOT1, full-length (human) (UniProt A5YKK6). Briefly: co-IP; HEK293T cells co-transfected with GFP- and HA-tagged proteins; RIPA lysate treated with RNase A; polyclonal anti-GFP antibody and GammaBind G Sepharose, 4°C; western blotting.

Sequences of proteins named here, by UniProt entry; tags and fusion partners are left off. A change or cut given only in a name is not applied to a line headed by its entry. A line that says so, or that is headed by a name, gives the form on record, which may keep a tag or linker. Residues count along the entry.
UniProt Q9UFF9: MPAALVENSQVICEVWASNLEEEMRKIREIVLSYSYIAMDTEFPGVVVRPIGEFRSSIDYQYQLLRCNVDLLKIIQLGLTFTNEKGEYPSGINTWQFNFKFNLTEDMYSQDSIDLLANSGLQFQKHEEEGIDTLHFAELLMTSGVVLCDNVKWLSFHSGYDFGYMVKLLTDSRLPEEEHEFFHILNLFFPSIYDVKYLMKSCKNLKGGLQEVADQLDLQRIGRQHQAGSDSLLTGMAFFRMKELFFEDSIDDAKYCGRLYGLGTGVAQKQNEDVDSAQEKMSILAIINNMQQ
UniProt A5YKK6: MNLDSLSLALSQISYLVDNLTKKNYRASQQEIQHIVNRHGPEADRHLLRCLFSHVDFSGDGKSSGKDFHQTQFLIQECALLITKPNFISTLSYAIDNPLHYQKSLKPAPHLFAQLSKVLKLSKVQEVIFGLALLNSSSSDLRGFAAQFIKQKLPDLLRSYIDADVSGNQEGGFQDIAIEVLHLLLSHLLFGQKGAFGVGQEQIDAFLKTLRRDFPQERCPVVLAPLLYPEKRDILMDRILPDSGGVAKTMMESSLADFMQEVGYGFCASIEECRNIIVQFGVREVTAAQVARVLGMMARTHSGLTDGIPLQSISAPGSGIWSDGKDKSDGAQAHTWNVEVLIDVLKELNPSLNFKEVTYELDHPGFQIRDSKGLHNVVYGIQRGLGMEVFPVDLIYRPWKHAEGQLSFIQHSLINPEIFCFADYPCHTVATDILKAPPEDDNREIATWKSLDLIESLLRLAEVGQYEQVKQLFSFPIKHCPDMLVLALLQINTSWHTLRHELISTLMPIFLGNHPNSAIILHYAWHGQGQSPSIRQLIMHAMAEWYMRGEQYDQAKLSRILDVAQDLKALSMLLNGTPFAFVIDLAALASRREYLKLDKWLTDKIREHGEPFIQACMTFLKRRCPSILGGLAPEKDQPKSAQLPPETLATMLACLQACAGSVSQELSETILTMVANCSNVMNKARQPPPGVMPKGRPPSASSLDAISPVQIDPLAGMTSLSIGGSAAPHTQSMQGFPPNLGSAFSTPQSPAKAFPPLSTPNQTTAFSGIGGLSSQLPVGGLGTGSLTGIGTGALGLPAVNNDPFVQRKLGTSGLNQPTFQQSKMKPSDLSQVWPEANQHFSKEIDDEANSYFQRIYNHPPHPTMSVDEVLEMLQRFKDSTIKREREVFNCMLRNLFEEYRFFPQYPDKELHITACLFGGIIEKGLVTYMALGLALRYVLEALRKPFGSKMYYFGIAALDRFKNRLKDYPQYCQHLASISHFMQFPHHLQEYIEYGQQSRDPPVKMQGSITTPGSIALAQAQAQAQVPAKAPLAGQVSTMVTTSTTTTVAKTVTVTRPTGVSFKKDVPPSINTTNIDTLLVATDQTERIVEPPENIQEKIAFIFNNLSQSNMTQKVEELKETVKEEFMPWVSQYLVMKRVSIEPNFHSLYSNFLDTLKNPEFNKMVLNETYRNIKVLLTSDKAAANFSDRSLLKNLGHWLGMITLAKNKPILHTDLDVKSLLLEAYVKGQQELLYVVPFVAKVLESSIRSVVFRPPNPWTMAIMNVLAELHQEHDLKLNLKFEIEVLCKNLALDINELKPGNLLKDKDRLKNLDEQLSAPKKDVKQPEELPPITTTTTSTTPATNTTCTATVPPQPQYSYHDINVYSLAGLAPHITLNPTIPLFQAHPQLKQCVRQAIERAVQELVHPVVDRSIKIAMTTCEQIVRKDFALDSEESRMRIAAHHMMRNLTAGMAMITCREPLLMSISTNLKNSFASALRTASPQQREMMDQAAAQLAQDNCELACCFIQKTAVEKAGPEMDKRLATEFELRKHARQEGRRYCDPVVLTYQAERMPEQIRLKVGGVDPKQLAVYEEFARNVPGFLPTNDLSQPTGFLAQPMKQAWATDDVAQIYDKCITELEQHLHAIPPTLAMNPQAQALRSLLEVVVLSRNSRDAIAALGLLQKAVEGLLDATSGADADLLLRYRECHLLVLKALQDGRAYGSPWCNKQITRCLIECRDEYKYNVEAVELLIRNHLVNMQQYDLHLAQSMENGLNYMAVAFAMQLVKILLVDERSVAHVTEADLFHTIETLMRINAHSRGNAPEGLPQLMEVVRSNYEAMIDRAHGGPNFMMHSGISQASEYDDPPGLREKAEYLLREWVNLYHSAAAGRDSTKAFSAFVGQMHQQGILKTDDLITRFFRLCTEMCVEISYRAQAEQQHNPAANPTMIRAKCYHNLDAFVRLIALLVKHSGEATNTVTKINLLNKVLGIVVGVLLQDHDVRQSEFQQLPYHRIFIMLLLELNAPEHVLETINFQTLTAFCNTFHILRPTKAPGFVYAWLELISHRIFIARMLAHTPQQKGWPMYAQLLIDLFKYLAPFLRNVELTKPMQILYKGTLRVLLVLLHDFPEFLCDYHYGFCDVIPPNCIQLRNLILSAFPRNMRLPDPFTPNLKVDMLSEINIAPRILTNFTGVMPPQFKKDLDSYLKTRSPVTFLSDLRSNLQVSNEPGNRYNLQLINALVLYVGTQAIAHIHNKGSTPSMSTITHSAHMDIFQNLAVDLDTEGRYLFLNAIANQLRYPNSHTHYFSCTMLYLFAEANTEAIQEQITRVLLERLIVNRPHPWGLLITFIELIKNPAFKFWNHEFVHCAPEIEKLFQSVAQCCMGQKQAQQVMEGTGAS
MBP-tagged HsNOT1 middle domain (amino acids 1085-1605): residues 1085-1605 of A5YKK6

No constants are given. Whether binding was seen depends on the method and setting. Binding seen in cells or lysates may run through a third protein. Some results given as binding are weak or reduced against the parent protein; the word gives no strength.

On to “MBP-tagged HsNOT1 middle domain (amino acids 1085-1605) (from UniProt A5YKK6-1 1085-1605) (domain or fragment)”, for which the binding entry in assay [1] was “binds”. Regarding “HA-tagged human POP2 (from UniProt Q9UFF9 1-292) (enzyme)”, the binding entry in assay [2] is given as “binds”.

(Values after paper PMC3510486, “The structural basis for the interaction between the CAF1 nuclease and the NOT1 scaffold of the human CCR4–NOT deadenylase complex” (Nucleic Acids Research, 2012).)
